Results: PubChem BioAssay AID504467 (National Center for Advancing Translational Sciences (NCATS), 2011)
Among all 330,000 compounds or so, about 7,700 (2.3%) were called active. Inconclusive results, whose numbers are uncertain, are shown with a selection of clear calls. The call rests on the fitted dose curve; in most records, active means well fitted inhibition curve with a large enough effect; inconclusive means small, poorly fitted or top-dose-only effect, or effect the other way; inactive means flat fitted curve, though single readings scatter. Where the call is inconclusive, the potency comes from a doubtful curve fit.

experiment: qHTS screen for small molecules that inhibit ELG1-dependent DNA repair in human embryonic kidney (HEK293T) cells expressing luciferase-tagged ELG1; conditions: HEK293T ELG1-luciferase reporter, luminescence, 16 h, DNA damage induced by 5-fluorouridine; activity change, negative = inhibition: at 46.1 µM (top of the series); further: nearly all actives have a fitted effect of over 55% in size
How it was run: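 Luminescence from the luciferase reporter, measured 30 min after ONE-Glo reagent at room temperature, was the read-out. Beforehand, 2,000 cells per well were exposed for 16 hr at 37 °C to 5-fluorouridine together with compound or vehicle.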
On the % scale 0 is the no-effect control and ±100 the full control effect; potency means the concentration at half of the fitted maximal effect.

Question: For COc1ccc(O[C@H]2C=C[C@@H](c3ccccc3)O[C@@H]2COC(=O)CCC(C)=NO[C@@H]2O[C@H](COC(C)=O)[C@@H](OC(C)=O)[C@H](OC(C)=O)[C@H]2OC(C)=O)cc1, which Potency is on record?
Answer: inconclusive: 13 µM [inhibitor, partial curve, poor fit]

Question: With C=C(C)COc1cc2oc(=O)c(CC(=O)N3C[C@H]4C[C@@H](C3)c3cccc(=O)n3C4)c(C)c2cc1Cl as the molecule, how does the “activity change, negative = inhibition” value read?
Answer: inactive: -6.44%

Question: With N#Cc1ccc(CSc2ncnc3c2cnn3Cc2ccccc2)cc1 as the molecule, how does the Potency read?
Answer: inconclusive: 18.4 µM [inhibitor, single point]

Question: For CSc1ncccc1C(=O)OCc1ccccc1F, which Potency is on record?
Answer: inconclusive: 25.9 µM [activator, single point]

Question: Which Potency does the source give for O=C(Cn1nnc2c(cnn2-c2ccccc2)c1=O)N1CCN(c2ccccc2F)CC1 here?
Answer: inconclusive: 29.1 µM [inhibitor, single point]

Question: For COc1ccc(/C=N\NC(=O)COc2ccc(Cl)cc2Cl)c(C(=O)O)c1OC, which Potency is on record?
Answer: inconclusive: 29.1 µM [activator, single point]

Question: With Cc1nn(C)c(C)c1S(=O)(=O)N1CCCC(C(=O)NC2CCCCCC2)C1 (stereo unspecified) as the molecule, how does the “activity change, negative = inhibition” value read?
Answer: inactive: 4.34%

Question: For Cc1ccc(C(=O)Nc2ccc(N3CCOCC3)nc2)cc1, which Potency is on record?
Answer: inconclusive: 16.4 µM [activator, single point]

Question: With COc1cc(NC(=O)c2ccc(F)cc2)c(OC)cc1NC(=O)CN1CCOCC1 as the molecule, how does the Potency read?
Answer: inconclusive: 16.4 µM [inhibitor, single point]

Question: Which Potency does the source give for CCOC(=O)c1ccccc1CN1C(=O)c2ccccc2S1(=O)=O here?
Answer: inconclusive: 3.66 µM [inhibitor, partial curve, poor fit]

Question: For O=C(Nc1nc2ccccc2[nH]1)c1cccc(Br)c1, which Potency is on record?
Answer: inconclusive: 5.17 µM [activator, full curve]

Question: For Cc1[nH]n(-c2ccccc2)c(=O)c1/C=N/NC(=O)COc1ccccc1[N+](=O)[O-], which “activity change, negative = inhibition” value is on record?
Answer: inactive: 1.56%

Question: With COc1ccc(NS(=O)(=O)c2cc(NC(=O)CC(C)(C)C)ccc2N2CCCC2)cc1 as the molecule, how does the Potency read?
Answer: inconclusive: 20.6 µM [inhibitor, partial curve, poor fit]

Question: For Cc1ccn2c(-c3csc(NCc4ccco4)n3)c(C)nc2c1, which Potency is on record?
Answer: inconclusive: 18.4 µM [inhibitor, partial curve]

Question: Which Potency does the source give for COc1ccc2c(CC(=O)N3CCc4ccccc43)coc2c1 here?
Answer: inconclusive: 9.2 µM [activator, partial curve]

Question: Which “activity change, negative = inhibition” value does the source give for O=C1c2ccccc2-c2c1cccc2C(=O)N1CCCCCC1 here?
Answer: inactive: -3.08%

Question: For Cc1cc(C)c(NC(=O)c2cccc(NC(=O)c3ccco3)c2)c(C)c1, which “activity change, negative = inhibition” value is on record?
Answer: inactive: -18.9%

Question: With Cc1nc(N)sc1C(=O)OCC(C)C as the molecule, how does the Potency read?
Answer: inconclusive: 18.3 µM [activator, partial curve]

Question: For COc1ccc(N2CCN(C(CNC(=O)C(=O)NCc3ccc4c(c3)OCO4)c3ccco3)CC2)cc1 (stereo unspecified), which Potency is on record?
Answer: active: 7.3 µM

Question: Which Potency does the source give for O=C(CCc1nc2ccccc2s1)N1CCN(S(=O)(=O)c2cccs2)CC1 here?
Answer: inconclusive: 35.5 µM [inhibitor, single point]

Question: With N/C(=N\OC(=O)CC1CCCCC1)c1ccccc1 as the molecule, how does the Potency read?
Answer: inconclusive: 16.4 µM [activator, partial curve]

Question: For C[C@@H](NC(=O)[C@@H]1Cc2ccccc2CN1)C(=O)NC1CCCCC1, which “activity change, negative = inhibition” value is on record?
Answer: inactive: 5.61%

Question: Which Potency does the source give for O=C(c1ccccc1)c1cc2ccccc2o1 here?
Answer: inconclusive: 14.6 µM [activator, partial curve]

Question: For CSc1cccc(NC(=O)C2CCCN(S(=O)(=O)c3ccc(F)cc3)C2)c1 (stereo unspecified), which Potency is on record?
Answer: active: 20.6 µM

Question: For NC(=O)c1nsc(C(=O)N(c2ccccc2)C(C(=O)NCC2CCCO2)c2cccs2)c1N (stereo unspecified), which Potency is on record?
Answer: inconclusive: 29.1 µM [inhibitor, single point]

Question: With CC(C)(NC(=O)NC(CO)c1ccccc1)c1cccc(C(C)(C)NC(=O)NC(CO)c2ccccc2)c1 (stereo unspecified) as the molecule, how does the “activity change, negative = inhibition” value read?
Answer: inactive: 22.9%

Question: With [O-]/[N+](=C\c1ccccc1)c1ccc(Br)cc1 as the molecule, how does the Potency read?
Answer: inconclusive: 10.3 µM [activator, partial curve]

Question: Which “activity change, negative = inhibition” value does the source give for CCCCCC(=O)NNC1=NCC(Cc2ccccc2)S1 (stereo unspecified) here?
Answer: inactive: 0%

Question: Which Potency does the source give for O=C(NCCc1ccccc1)C(=O)NCC1OCCN1S(=O)(=O)c1ccc([N+](=O)[O-])cc1 (stereo unspecified) here?
Answer: inconclusive: 16.4 µM [inhibitor, single point]

Question: Which “activity change, negative = inhibition” value does the source give for CCOc1ccc(/C=C/C(=O)Oc2ccccc2)cc1 here?
Answer: inactive: 5.52%

Question: Which Potency does the source give for O=C(NCc1ccc2c(c1)OCO2)c1ccc(Cl)c(S(=O)(=O)NCc2ccccc2)c1 here?
Answer: inconclusive: 25.9 µM [inhibitor, single point]

Question: With O=C1CN(S(=O)(=O)c2ccccc2)c2ccccc2N1 as the molecule, how does the Potency read?
Answer: inconclusive: 20.6 µM [inhibitor, single point]

Question: For COc1ccc(C(=O)NCCn2cc(SCC(=O)NCC3CCCO3)c3ccccc32)cc1 (stereo unspecified), which “activity change, negative = inhibition” value is on record?
Answer: inactive: -7.71%

Question: Which “activity change, negative = inhibition” value does the source give for COc1ccc(CNC(=S)Nc2ccccc2F)cc1 here?
Answer: inactive: -1.85%

Question: Which Potency does the source give for Cc1ccc(C(=O)Nc2sc3c(c2C(=O)NCc2ccco2)CCCC3)cc1 here?
Answer: inconclusive: 20.6 µM [activator, partial curve, poor fit]

Question: For CCOC(=O)C1CCCN(Cc2ccccc2F)C1 (stereo unspecified), which Potency is on record?
Answer: inconclusive: 6.51 µM [inhibitor, single point]

Question: With CCn1c(=O)c2cc(C(=O)NCc3cccs3)sc2c2ccccc21 as the molecule, how does the “activity change, negative = inhibition” value read?
Answer: inactive: -2.31%

Question: Which Potency does the source give for CC/C(=N\NC(=O)c1nnn(-c2nonc2N)c1-c1cccc(OC)c1)c1ccc(C)cc1 here?
Answer: inconclusive: 23.1 µM [inhibitor, single point]

Question: With COc1ccc(Cc2nnc(Nc3ccc(C)cc3)o2)cc1OC as the molecule, how does the Potency read?
Answer: inconclusive: 11.6 µM [inhibitor, partial curve]

Question: Which “activity change, negative = inhibition” value does the source give for O=C(C[C@@H]1C/C=C\C[C@@H](Cc2ccc(F)cc2)C(=O)OCCNC1=O)NCCO here?
Answer: inactive: 6.53%

Question: With CCOC(=O)C1=CN(Cc2ccc(Br)cc2)S(=O)(=O)N(C)C1C (stereo unspecified) as the molecule, how does the “activity change, negative = inhibition” value read?
Answer: inactive: 5.04%

Question: Which Potency does the source give for Cc1ccc(Nc2nc(N)nc(CSc3nnc(C)s3)n2)cc1 here?
Answer: inconclusive: 20.6 µM [activator, partial curve]

Question: Which Potency does the source give for O=C(Nc1ccccn1)N1CCOCC1 here?
Answer: inconclusive: 29.1 µM [activator, single point]

Question: Which Potency does the source give for COc1ccc(S(=O)(=O)N(C)CC(=O)Nc2ccccc2SC)cc1 here?
Answer: inconclusive: 29.1 µM [inhibitor, single point]

Question: For Cc1cccc2c(N)c3c(nc12)CCCC3 (tested in a mixture with another compound), which “activity change, negative = inhibition” value is on record?
Answer: inactive: 11.7%

Question: Which “activity change, negative = inhibition” value does the source give for COc1ccc(C(=O)NC2CCSc3ccccc32)cc1F (stereo unspecified) here?
Answer: inactive: 0.407%

Question: With Cc1ccccc1-c1nc(CS(=O)(=O)CC(=O)NCc2ccc(F)cc2)c(C)o1 as the molecule, how does the Potency read?
Answer: inconclusive: 20.6 µM [inhibitor, partial curve]

Question: For CN(C(=O)c1ccc(Br)cc1)C1CCS(=O)(=O)C1 (stereo unspecified), which Potency is on record?
Answer: inconclusive: 9.2 µM [activator, single point]

Question: With COc1cc(C(=O)Nc2ccccc2C(=O)Nc2ccccn2)cc(OC)c1OC as the molecule, how does the Potency read?
Answer: active: 2 µM

Question: Which Potency does the source give for Cc1ccc(NC(=S)Nc2ccccn2)cc1C here?
Answer: inconclusive: 13 µM [activator, partial curve]

Question: Which Potency does the source give for CCOc1ccc(N/C(=N/c2nc(C)cc(C)n2)NC(=O)CC)cc1 here?
Answer: active: 18.3 µM

Question: Which Potency does the source give for Cc1nc(NC(=O)c2cncc(Br)c2)ccc1Br here?
Answer: inconclusive: 6.51 µM [activator, single point]

Question: For O=C(NN(CC(O)COc1ccccc1)CC(O)COc1ccccc1)c1ccccc1 (stereo unspecified), which Potency is on record?
Answer: inconclusive: 20.6 µM [inhibitor, partial curve, poor fit]

Question: With CCOC(=O)C(=CNc1ccc(NC2=NCC(C)S2)cc1)C(=O)OCC (stereo unspecified) as the molecule, how does the Potency read?
Answer: active: 6.51 µM

Question: Which Potency does the source give for Cc1ccc(NCCC(=O)c2cccs2)cc1 here?
Answer: inconclusive: 13 µM [activator, partial curve]

Question: Which Potency does the source give for CCCc1nc(SCc2ccccc2Cl)n[nH]1 here?
Answer: inconclusive: 20.6 µM [activator, single point]

Question: Which Potency does the source give for COc1ccc(C(=O)O/N=C(\N)c2ccccc2Cl)cc1OC here?
Answer: inconclusive: 16.4 µM [activator, single point]

Question: With Cc1ccc(-c2csc(NC(=O)C[n+]3cc(-c4ccc(C)cc4)n4c3CCC4)n2)cc1 as the molecule, how does the Potency read?
Answer: inconclusive: 1.16 µM [inhibitor, partial curve, poor fit]

Question: With CCOC(=O)c1c(C)[nH]c(C(=O)CSc2nnc(-c3ccncc3)n2CC)c1C as the molecule, how does the Potency read?
Answer: inconclusive: 9.2 µM [inhibitor, single point]

Question: With CCOC(=O)Cc1csc(SC(C)C(=O)NCC(=O)Nc2ccc(F)c(F)c2F)n1 (stereo unspecified) as the molecule, how does the Potency read?
Answer: inconclusive: 29.1 µM [inhibitor, single point]

Question: Which “activity change, negative = inhibition” value does the source give for Cc1c(CC(=O)N2CCC(C(N)=O)CC2)c(=O)oc2cc3c(cc12)CCC1(CCCCC1)O3 here?
Answer: inactive: -26.5%

Question: With CCOc1cccc(C(=O)Nc2ccccc2C(=O)N2CCN(C)CC2)c1 as the molecule, how does the “activity change, negative = inhibition” value read?
Answer: inactive: 8.36%

Question: Which Potency does the source give for COc1ccc(N2CCn3c2nc2c3c(=O)n(CCCc3ccccc3)c(=O)n2C)c(OC)c1 here?
Answer: active: 20.6 µM

Question: For CSc1ccccc1NC(=S)NCc1ccc(Cl)cc1, which Potency is on record?
Answer: inconclusive: 18.3 µM [activator, single point]

Question: With CCOC(=O)C(=CNc1ccc2c(c1)nnn2-c1ccc(Cl)cc1)C(=O)OCC as the molecule, how does the “activity change, negative = inhibition” value read?
Answer: inactive: 6.83%

Question: With CN1CCN(C(=O)C2CCCN(S(=O)(=O)c3ccccc3)C2)CC1 (stereo unspecified) as the molecule, how does the Potency read?
Answer: inconclusive: 23.1 µM [activator, single point]

Question: Which “activity change, negative = inhibition” value does the source give for CC(NC(=O)c1ccc(CS(C)(=O)=O)cc1)c1cccc2ccccc12 (stereo unspecified) here?
Answer: inactive: -1.77%

Question: For Cc1ccc(Cc2cnc(NC(=O)C3CCCO3)s2)cc1 (stereo unspecified), which Potency is on record?
Answer: inconclusive: 9.2 µM [activator, partial curve, poor fit]

Question: Which “activity change, negative = inhibition” value does the source give for COc1ccc(CNC(=O)COC(=O)CC(NC(N)=O)c2ccc(Cl)cc2)cc1OC (stereo unspecified) here?
Answer: inactive: -3.31%

Question: For CCCn1c(SCC(=O)C(C)(C)C)nc2ccccc21, which “activity change, negative = inhibition” value is on record?
Answer: inactive: -4.57%

Question: Which Potency does the source give for CCCCN=C1NN=C(c2ccc3c(c2)OCCO3)CS1 here?
Answer: inconclusive: 4.11 µM [activator, partial curve]
